These are yes or no findings as the source states them, for the method shown. Binding seen in cells or lysates may run through a third protein. Some results given as binding are weak or reduced against the parent protein; the word gives no strength. For part of these data: Tags and fused reporters may be left off the sequences shown.
B1: cavin-3 (protein, UniProt Q969G5 1-261)
chain: MRESALERGPVPEAPAGGPVHAVTVVTLLEKLASMLETLRERQGGLARRQGGLAGSVRRIQSGLGALSRSHDTTSNTLAQLLAKAERVSSHANAAQERAVRRAAQVQRLEANHGLLVARGKLHVLLFKEEGEVPASAFQKAPEPLGPADQSELGPEQLEAEVGESSDEEPVESRAQRLRRTGLQKVQSLRRALSGRKGPAAPPPTPVKPPRLGPGRSAEAQPEAQPALEPTLEPEPPQDTEEDPGRPGAAEEALLQMESVA
B2: RSV matrix (M) protein, P0DOE7 1-256 (protein)
chain: METYVNKLHEGSTYTAAVQYNVLEKDDDPASLTIWVPMFQSSMPADLLIKELANVNILVKQISTPKGPSLRVMINSRSAVLAQMPSKFTICANVSLDERSKLAYDVTTPCEIKACSLTCLKSKNMLTTVKDLTMKTLNPTHDIIALCEFENIVTSKKVIIPTYLRSISVRNKDLNTLENITTTEFKNAITNAKIIPYSGLLLVITVTDNKGAFKYIKPQSQFIVDLGAYLEKESIYYVTTNWKHTATRFAIKPMED

The chains behind the UniProt entries cited, without tags or fusion partners.
UniProt Q03135: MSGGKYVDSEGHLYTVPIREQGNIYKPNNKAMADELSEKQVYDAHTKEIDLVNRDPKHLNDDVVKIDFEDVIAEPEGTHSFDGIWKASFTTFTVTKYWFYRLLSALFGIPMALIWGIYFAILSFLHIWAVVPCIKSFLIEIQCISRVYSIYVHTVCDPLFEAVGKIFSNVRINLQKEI

Legend:
cavin-1–EGFP [1] = target: T1, cavin-1–EGFP (UniProt Q6NZI2); assay: co-sedimentation; mock-infected or RSV-infected HeLa cells stably expressing cavin-1–EGFP crosslinked live at 22 hpi with 2 mM DSP; lysed in 50 mM Tris-HCl pH 8, 300 mM NaCl, 5 mM EDTA, 1% Triton X-100, 1% octyl-glucoside; linear 10–40% sucrose gradient, SW41Ti 37,000 rpm 6 h 4°C; fractions immunoblotted
T1 sequence: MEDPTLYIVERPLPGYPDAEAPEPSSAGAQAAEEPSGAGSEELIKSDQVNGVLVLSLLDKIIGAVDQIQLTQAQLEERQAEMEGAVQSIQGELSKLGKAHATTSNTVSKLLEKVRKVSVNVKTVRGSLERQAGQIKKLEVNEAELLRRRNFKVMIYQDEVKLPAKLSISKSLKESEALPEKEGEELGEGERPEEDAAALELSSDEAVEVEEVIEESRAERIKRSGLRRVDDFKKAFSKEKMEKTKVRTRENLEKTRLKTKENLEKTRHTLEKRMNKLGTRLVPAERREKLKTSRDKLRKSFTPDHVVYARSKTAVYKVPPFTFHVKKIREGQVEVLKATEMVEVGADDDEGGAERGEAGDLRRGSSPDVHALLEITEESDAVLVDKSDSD

[2] = target: T2, RSV M2-1 protein (respiratory syncytial virus (RSV)) (UniProt P04545); assay: co-IP; non-crosslinked whole-cell lysates of mock-infected or RSV-infected HeLa cells (22 hpi), milder detergent and salt concentrations; IP with anti-G, anti-M and anti-M2-1 antibodies; blots for G, M and caveolin-1
T2 sequence: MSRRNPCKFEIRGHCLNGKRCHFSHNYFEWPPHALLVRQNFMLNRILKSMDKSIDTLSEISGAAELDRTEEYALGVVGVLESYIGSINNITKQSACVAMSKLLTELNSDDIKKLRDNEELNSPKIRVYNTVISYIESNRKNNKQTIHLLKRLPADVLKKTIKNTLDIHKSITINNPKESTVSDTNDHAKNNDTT

[3] = target: T3, RSV matrix (M) protein (respiratory syncytial virus (RSV)) (UniProt P0DOE7); assay: as above
T3 sequence: B2 chain

cavin-1–EGFP [4] = target: T1, cavin-1–EGFP; assay: co-IP; GFP-trap (RFP-trap as control) on pooled 80S peak fractions of the sucrose gradient from DSP-crosslinked mock-infected or RSV-infected HeLa cells expressing cavin-1–EGFP; washes 50 mM Tris-HCl pH 8, 300 mM NaCl, 0.2% Triton X-100; silver stain and immunoblot
[5] = target: T4, RSV M2-1 protein (respiratory syncytial virus (RSV)), P04545; assay: co-IP; non-crosslinked whole-cell lysates of mock-infected or RSV-infected HeLa cells (22 hpi), milder detergent and salt concentrations; IP with anti-G, anti-M and anti-M2-1 antibodies; blots for G, M and caveolin-1; conditions: remark: other sources report otherwise
T4 chain: T2 sequence

Row | Molecule | binding (cavin-1–EGFP [1]) | binding [2] | binding [3] | binding (cavin-1–EGFP [4]) | binding [5]
1 | caveolin-1 (from UniProt Q03135 1-178) | binds | binds | binds | binds | 
2 | B1 |  |  |  | binds | 
3 | B2 |  |  |  |  | binds
